Results are given in words; binding and its absence hold for the method and conditions named. Binding seen in cells or lysates may run through a third protein. Some results given as binding are weak or reduced against the parent protein; the word gives no strength. Where a sequence is shown, tags or fusion partners need not be part of it.
Target: T1, endogenous SIRT1 of N1E-115 cells (mouse (endogenous in N1E-115)) (UniProt Q923E4)
T1 sequence: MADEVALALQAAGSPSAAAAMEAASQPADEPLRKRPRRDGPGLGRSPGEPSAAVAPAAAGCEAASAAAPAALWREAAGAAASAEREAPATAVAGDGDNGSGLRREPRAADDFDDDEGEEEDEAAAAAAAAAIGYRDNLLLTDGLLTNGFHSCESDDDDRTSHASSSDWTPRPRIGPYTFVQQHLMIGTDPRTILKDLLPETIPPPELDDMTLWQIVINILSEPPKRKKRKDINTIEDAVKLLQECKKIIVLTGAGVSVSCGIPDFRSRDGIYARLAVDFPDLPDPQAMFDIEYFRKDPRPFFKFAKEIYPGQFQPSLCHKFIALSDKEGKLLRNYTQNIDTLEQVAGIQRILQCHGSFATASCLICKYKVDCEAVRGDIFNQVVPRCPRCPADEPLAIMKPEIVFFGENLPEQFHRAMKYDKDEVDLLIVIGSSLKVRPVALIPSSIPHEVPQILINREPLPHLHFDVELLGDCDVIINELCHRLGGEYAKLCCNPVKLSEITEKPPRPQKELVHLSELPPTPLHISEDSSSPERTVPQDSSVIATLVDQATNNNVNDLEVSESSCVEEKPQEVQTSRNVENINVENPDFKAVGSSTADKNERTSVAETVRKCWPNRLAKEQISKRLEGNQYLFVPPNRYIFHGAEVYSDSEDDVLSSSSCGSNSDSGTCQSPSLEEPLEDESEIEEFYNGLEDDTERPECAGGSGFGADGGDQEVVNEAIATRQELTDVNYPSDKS
Assay: co-IP; N1E-115 cells transfected with Myc-NDPK-D; lysates immunoprecipitated with anti-SIRT1 antibody or control IgG, blotted with anti-Myc antibody

binding: binds
B1: Myc-tagged NDPK-D (nucleoside diphosphate kinase D), expressed in N1E-115 cells (protein, UniProt O00746 29-187)
chain: GSGGPSWTRERTLVAVKPDGVQRRLVGDVIQRFERRGFTLVGMKMLQAPESVLAEHYQDLRRKPFYPALIRYMSSGPVVAMVWEGYNVVRASRAMIGHTDSAEAAPGTIRGDFSVHISRNVIHASDSVEGAQREIQLWFQSSELVSWADGGQHSSIHPA
